Results are given in words; binding and its absence hold for the method and conditions named. Some binding calls cover weakened binding; strength is not graded here. Sequences can lack the tags named with a protein.
Target: T1, GST-Set7 (UniProt Q8WTS6)
T1 sequence: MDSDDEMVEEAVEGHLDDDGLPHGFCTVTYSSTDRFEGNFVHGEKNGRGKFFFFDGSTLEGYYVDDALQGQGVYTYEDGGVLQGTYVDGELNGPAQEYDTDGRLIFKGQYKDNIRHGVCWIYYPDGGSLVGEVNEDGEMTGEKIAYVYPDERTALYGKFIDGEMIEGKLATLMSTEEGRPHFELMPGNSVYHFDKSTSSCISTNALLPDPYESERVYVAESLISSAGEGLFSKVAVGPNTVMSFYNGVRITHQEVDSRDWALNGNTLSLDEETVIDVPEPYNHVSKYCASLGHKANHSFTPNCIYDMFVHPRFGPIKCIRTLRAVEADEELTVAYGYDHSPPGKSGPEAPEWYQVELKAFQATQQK
Experiment: pull-down; GST-Set7 as bait with MBP-tagged Gli3 truncated fragments (MBP-K436, MBP-K595); proteins expressed in E. coli; both purified

B1: MBP-K436 (amino acids from 344 to 463 of Gli3) (domain or fragment, UniProt P10071 344-463)
chain: PALSFTYSSAPVSLHMHQQILSRQQSLGSAFGHSPPLIHPAPTFPTQRPIPGIPTVLNPVQVSSGPSESSQNKPTSESAVSSTGDPMHNKRSKIKPDEDLPSPGARGQQEQPEGTTLVKE
binding: binds

From article PMC4884081
